{"source": "PubChem BioAssay AID1347075", "about": "(National Center for Advancing Translational Sciences (NCATS), 2019)", "note": "Among all 400,000 compounds or so, about 5,500 (1.4%) were called active. Inconclusive means that the source gave no clear call. Such entries were picked first, then a sample of the others. The call rests on the fitted dose curve; in most records, active means well fitted cell-killing curve with a large enough effect; inconclusive means small, poorly fitted or top-dose-only effect, or effect the other way; inactive means flat fitted curve, though single readings scatter. Potencies of inconclusive entries are doubtful fits and often do not repeat. On the % scale 0 is the no-effect control and ±100 the full control effect; potency means the concentration at half of the fitted maximal effect."}
{"assay": "qHTS assay for MDR1-selective chemotherapeutics: Primary screen using the parental adenocarcinoma cell KB-3-1; further: nearly all actives have a fitted effect of over 60% in size", "details": "KB-3-1 viability, CellTiter-Glo ATP luminescence, 72 h; activity change, negative = cytotoxic: at 46.1 µM (top of the series)", "outline": "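Luminescent ATP read-out (CellTiter-Glo) measures survival of drug-naive KB-3-1 cells after 72 h compound exposure at 37 °C. Titration series was screened from lowest to highest concentration, with DMSO vehicle plates as background controls.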"}
{"smiles": "O=c1[nH]c(=O)n(C(c2ccccc2)(c2ccccc2)c2ccccc2)cc1N(CCO)CCO", "Potency": "inconclusive: 25.9 µM [cytotoxic, single point]"}
{"smiles": "CC(C)OC(=O)c1c(NS(=O)(=O)c2ccccc2)sc2c1CCCC2", "Potency": "inconclusive: 29.1 µM [cytotoxic, single point]"}
{"smiles": "CCc1cccc(NC(=O)CSc2n[nH]c(-c3ccccc3Cl)n2)c1", "Potency": "inconclusive: 18.4 µM [cytotoxic, single point]"}
{"smiles": "Cc1cc(NC(=O)COC(=O)C2CC(=O)N(c3cccc(Cl)c3)C2)no1", "note": "(configuration not stated)", "Potency": "inconclusive: 11.6 µM [rising, partial curve]"}
{"smiles": "COc1ccc(CNC(=O)Cc2ccc(-c3ccccc3)cc2)cc1OC", "Potency": "inconclusive: 18.4 µM [cytotoxic, single point]"}
{"smiles": "CCCNC(=O)C1(C)CCN(C(=O)c2cc(C(C)(C)C)nn2C)C1", "note": "(configuration not stated)", "activity change, negative = cytotoxic": "inactive: 0%"}
{"smiles": "Cc1ccc(C(NC(=O)CN2C(=O)NC3(CCCC3)C2=O)c2ccccc2)cc1", "note": "(configuration not stated)", "activity change, negative = cytotoxic": "inactive: 4.67%"}
{"smiles": "Cc1nc2cc(N3CCOCC3)c(NC(=O)C3CC3)cc2c(=O)n1Cc1ccccc1", "Potency": "inconclusive: 29.1 µM [rising, single point]"}
{"smiles": "CCOc1ccc(CCNC(=O)Cn2ccc3cc(S(=O)(=O)N4CCCC4)ccc32)cc1", "Potency": "inconclusive: 20.6 µM [cytotoxic, single point]"}
{"smiles": "Cc1cc(C)c(S(=O)(=O)/N=C2\\C=C(Nc3ccc(C(=O)O)cc3)C(=O)c3ccccc32)c(C)c1", "Potency": "inconclusive: 25.9 µM [cytotoxic, single point]"}
{"smiles": "COc1cccc(-c2nn(C)c3sc(C(=O)NCCc4cccc(C)c4)cc23)c1", "Potency": "inconclusive: 23.1 µM [cytotoxic, single point]"}
{"smiles": "S=c1[nH]nc(-c2cccs2)n1/N=C/c1cn(-c2ccccc2)nc1-c1cccs1", "activity change, negative = cytotoxic": "inactive: 2.4%"}
{"smiles": "CCCn1c(SCC(=O)Nc2nc3c(s2)CCCC3)nc2c1c(=O)n(C)c(=O)n2C", "activity change, negative = cytotoxic": "inactive: -6.55%"}
{"smiles": "CCC(=O)N1CCCc2cc(S(=O)(=O)N3CCN(c4ccccc4F)CC3)ccc21", "Potency": "inconclusive: 18.4 µM [cytotoxic, single point]"}
{"smiles": "CC1=C(C(N)=O)C(c2cccnc2)n2nc(SCc3ccccc3Cl)nc2N1", "note": "(configuration not stated)", "Potency": "inconclusive: 0.461 µM [rising, full curve]"}
{"smiles": "CCOc1ccc(NC(=O)Nc2ccc3nsnc3c2)cc1", "activity change, negative = cytotoxic": "inactive: 0.0865%"}
{"smiles": "CCCNCc1cc(Br)ccc1OCC(=O)NCCc1ccccc1", "activity change, negative = cytotoxic": "inconclusive: -38.4% [cytotoxic]"}
{"smiles": "Cc1noc(C)c1COc1cccc(C(=O)Nc2ccc3c(c2)OCO3)c1", "Potency": "inconclusive: 29.1 µM [cytotoxic, single point]"}
{"smiles": "Cc1cccc(NC(=S)NC(=O)c2cccs2)n1", "activity change, negative = cytotoxic": "inactive: 9.57%"}
{"smiles": "COc1ccc([C@H]2C[C@H](n3cc(-c4ccc(F)cc4)nn3)[C@@H](O)CN2C(=O)C2CCCCC2)cc1", "activity change, negative = cytotoxic": "inactive: -29.9%"}
{"smiles": "COC(=O)[C@@]12C[C@@H](CC(=O)NCCCCc3ccccc3)C(=O)N(CCc3ccc(OC)c(OC)c3)C1=CCC(C)(C)C2", "Potency": "inconclusive: 29.1 µM [cytotoxic, single point]"}
{"smiles": "O=C(CCCCCCCCC(=O)N1CCCCC1)N1CCCCC1", "Potency": "inconclusive: 29.1 µM [cytotoxic, single point]"}
{"smiles": "CSc1ccc(NC(=O)NCCCN2CCN(c3ccccc3F)CC2)cc1", "Potency": "inconclusive: 32.6 µM [cytotoxic, single point]"}
{"smiles": "O=C(Nc1cnn(Cc2ccc(Cl)cc2)c1)c1cccs1", "activity change, negative = cytotoxic": "inactive: 3.82%"}
{"smiles": "Cc1nc(NS(=O)(=O)c2ccccc2)sc1NC(=O)Nc1ccccc1", "activity change, negative = cytotoxic": "inactive: -6.58%"}
{"smiles": "CCNC(=S)NNC(=O)c1csc2ccccc12", "Potency": "inconclusive: 23.1 µM [cytotoxic, single point]"}
{"smiles": "CC(=O)N1CCN(S(=O)(=O)c2cccc(C(=O)OCc3ccc(C(C)(C)C)cc3)c2)CC1", "Potency": "inconclusive: 20.6 µM [cytotoxic, single point]"}
{"smiles": "Cc1scc(C(=O)NNC(=S)NCC2CCCO2)c1-c1ccccc1", "note": "(configuration not stated)", "activity change, negative = cytotoxic": "inactive: -4.89%"}
{"smiles": "Cc1cc(C)nc(Sc2ccc(C=O)cc2[N+](=O)[O-])n1", "activity change, negative = cytotoxic": "inactive: 2.38%"}
{"smiles": "COc1ccc(Cl)cc1N1C(=NC(=O)C2CCCCC2)SC2CS(=O)(=O)CC21", "note": "(configuration not stated)", "Potency": "inconclusive: 4.61 µM [cytotoxic, full curve]"}
{"smiles": "c1ccc(Sc2cccc3ccccc23)c(CNC2=NCCN2)c1", "Potency": "inconclusive: 20.6 µM [cytotoxic, partial curve, poor fit]"}
{"smiles": "CCOC(=O)Nc1ccc2c(c1)C(=NO)c1ccccc1-2", "Potency": "inconclusive: 29.1 µM [cytotoxic, single point]"}
{"smiles": "COC(=O)c1ccc(C)c(NC(=O)c2ccc(Cl)c([N+](=O)[O-])c2)c1", "Potency": "inconclusive: 23.1 µM [cytotoxic, partial curve, poor fit]"}
{"smiles": "COC(=O)C(NC(=O)CCc1c(C)nc2cc(-c3cccc(F)c3)nn2c1C)C(C)C", "note": "(configuration not stated)", "Potency": "inconclusive: 29.1 µM [cytotoxic, single point]"}
{"smiles": "Cc1cccc(Oc2sc(C(=O)c3ccccc3)c(N)c2C#N)c1", "Potency": "inconclusive: 29.1 µM [cytotoxic, single point]"}
{"smiles": "C[n+]1c2n(c3ccccc31)N=C(c1ccc(Br)cc1)CS2", "Potency": "inconclusive: 5.17 µM [cytotoxic, full curve]"}
{"smiles": "COCCN(C(=O)COC(=O)Cc1cccc(OC)c1)c1c(N)n(Cc2ccccc2)c(=O)[nH]c1=O", "Potency": "inconclusive: 29.1 µM [rising, partial curve, poor fit]"}
{"smiles": "Cc1ccc(NC(=O)CN(C)Cc2nc3ccccc3c(=O)[nH]2)c(Br)c1", "Potency": "inconclusive: 20.6 µM [cytotoxic, single point]"}
{"smiles": "CCOC(=O)C1(C)CCCN(C(=O)c2ccc3c(c2)CCO3)C1", "note": "(configuration not stated)", "activity change, negative = cytotoxic": "inactive: 0%"}
{"smiles": "COc1ccc(C(=O)N/C(=C\\c2cn(S(=O)(=O)N(C)C)c3ccccc23)C(=O)NCCCN2CCOCC2)cc1", "activity change, negative = cytotoxic": "inactive: 1.43%"}
{"smiles": "COc1ccc2sc(N(Cc3cccnc3)C(=O)c3cccs3)nc2c1", "Potency": "active: 16.4 µM"}
{"smiles": "COC(=O)C1=C(C(=O)OC)[C@@H]2N(Cc3ccccc3)c3ccccc3[C@@]23C[C@@H](C(=O)OC)N(C(=O)c2cc(C)oc2C)C3=N1", "Potency": "inconclusive: 29.1 µM [cytotoxic, single point]"}
